Where a chain is given by its changes, count along the chain named. Names and notes keep the numbering of the source. These are yes or no findings as the source states them, for the method shown. A result given as binding can be weak or reduced; the word gives no strength. Tags and fused reporters may be left off the sequences shown. For some assays here: Binding seen in cells or lysates may run through a third protein.
How the values were obtained:
[1] = molecular target: SSA1 (Saccharomyces cerevisiae;Aequorea victoria); experiment: pull-down from yeast cell lysate on magnetic beads coupled with trapper CA15816, anti-GFP western blot of the beads
[2] = molecular target: FBA1 (Saccharomyces cerevisiae;Aequorea victoria); experiment: as above
[3] = molecular target: ALD6 (Saccharomyces cerevisiae;Aequorea victoria); experiment: as above
[4] = molecular target: BMH1 (Saccharomyces cerevisiae;Aequorea victoria); experiment: as above
[5] = molecular target: PGI1 (Saccharomyces cerevisiae;Aequorea victoria); experiment: as above
[6] = molecular target: SSA1 (Saccharomyces cerevisiae;Aequorea victoria); experiment: NANEX elution from CA15816 magnetic beads with 40 ul stripper Nb CA12760 at 0.5 mg/ml, anti-GFP western blot of the eluate
[7] = molecular target: BMH1 (Saccharomyces cerevisiae;Aequorea victoria); experiment: as above
[8] = molecular target: PGI1 (Saccharomyces cerevisiae;Aequorea victoria); experiment: as above

Measured: binding

B1: CA15816 GFP-NbT54A/V55A (C-term. 6xHis + EPEA) (VHH)
VHH: QVQLVESGGGLVQAGGSLRLSCAASGRTFSTAAMGWFRQAPGKERDFVAGIYWAAGSTYYADSAKGRFTISRDNAKNTVYLQMDSLKPEDTAVYYCAARRRGFTLAPTRANEYDYWGQGTQVTVSS
modifications: biotinylated for BLI
binds: [1] | [2] | [3] | [4] | [5]

B2: CA12760 GFP-Nb207 (including C-terminal 6xHis + EPEA tag) (VHH)
VHH: B1 VHH with A54T, A55V
modifications: biotinylated for BLI
binds: [6] | [7] | [8]

Source: patent US20240027467A1
